Measurements reported in PMC9682256.
Results are given in words; binding and its absence hold for the method and conditions named. For some of these results: Binding seen in cells or lysates may run through a third protein. Some binding calls cover weakened binding; strength is not graded here. For some of these results: Tags and fused reporters may be left off the sequences shown. Values belong to the molecule of their own block, whether it stands above or below them.

Assays:
[1] = molecular target: T1, murine PiC2 (SLC25A3), mitochondrial phosphate carrier / Cu+ transporter (mouse (endogenous in primary myoblasts)) (UniProt Q8VEM8); experiment: co-IP; extracts of proliferating and differentiating primary myoblasts grown with or without CuSO4; IP lysis buffer (50 mM Tris-HCl pH 7.5, 150 mM NaCl, 1% Nonidet P-40, 0.5% sodium deoxycholate); anti-PiC2 or anti-COX1 antibody, 4°C 2 h, protein A/G magnetic beads overnight; western blot
T1 sequence: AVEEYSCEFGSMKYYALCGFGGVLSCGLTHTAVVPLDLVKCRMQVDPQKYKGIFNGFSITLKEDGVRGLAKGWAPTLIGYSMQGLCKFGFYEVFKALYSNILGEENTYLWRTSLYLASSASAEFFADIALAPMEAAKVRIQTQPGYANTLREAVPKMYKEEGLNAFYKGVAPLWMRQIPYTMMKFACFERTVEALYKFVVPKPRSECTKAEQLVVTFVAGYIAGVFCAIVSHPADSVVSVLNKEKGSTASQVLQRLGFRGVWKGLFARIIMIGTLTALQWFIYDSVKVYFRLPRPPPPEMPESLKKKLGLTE

[2] = molecular target: human PiC2 isoform A, N-terminal hexa-histidine tag (human) (UniProt Q00325); experiment: western blot of the purified recombinant protein; recombinant His-tagged PiC2A and PiC2B detected with anti-PiC2 and anti-His tag antibodies; both purified
[3] = molecular target: cytochrome c oxidase subunit COX1 (mouse (endogenous in primary myoblasts)) (UniProt P00397); experiment: co-IP; extracts of proliferating and differentiating primary myoblasts grown with or without CuSO4; IP lysis buffer (50 mM Tris-HCl pH 7.5, 150 mM NaCl, 1% Nonidet P-40, 0.5% sodium deoxycholate); anti-PiC2 or anti-COX1 antibody, 4°C 2 h, protein A/G magnetic beads overnight; western blot

- binding [2]: binds
B1: human PiC2 isoform A, N-terminal hexa-histidine tag (protein, UniProt Q00325-1 50-362)
chain: AVEEQYSCDYGSGRFFILCGLGGIISCGTTHTALVPLDLVKCRMQVDPQKYKGIFNGFSVTLKEDGVRGLAKGWAPTFLGYSMQGLCKFGFYEVFKVLYSNMLGEENTYLWRTSLYLAASASAEFFADIALAPMEAAKVRIQTQPGYANTLRDAAPKMYKEEGLKAFYKGVAPLWMRQIPYTMMKFACFERTVEALYKFVVPKPRSECSKPEQLVVTFVAGYIAGVFCAIVSHPADSVVSVLNKEKGSSASLVLKRLGFKGVWKGLFARIIMIGTLTALQWFIYDSVKVYFRLPRPPPPEMPESLKKKLGLTQ

- binding [3]: binds
B2: murine PiC2 (SLC25A3), mitochondrial phosphate carrier / Cu+ transporter (protein, UniProt Q8VEM8 46-357)
chain: T1 sequence

Continued, molecule first:

Molecule: cytochrome c oxidase subunit COX1 (from UniProt P00397 1-514)
- binding [1]: binds

B3: Sco2 (protein, UniProt Q8VCL2 42-255)
chain: QGPGLRTRLLITALFGAGLGWAWLAARAEKEQWRQQQRTEALRQAAVGQGDFSLLDHKGQPRCKADFRGQWVLMYFGFTHCPDICPDELEKLVQVVRKLEAEPDLPLVQPVFITVDPERDDVAAMARYVQEFHPRLLGLTGSTEQVAHASRNYRVYYSAGPKDEDQDYIVDHSIAIYLLNPDGLFTDYYGRSRSAEQIVESIRRHIAAFHSVLP
- binding [1]: binds
